Experimental data reported in the supplement of paper PMC10849652.
This is one part of the list. Residues, ends and D or L forms follow the SMILES beside them. *: point of attachment. Cbz = O=C(OCc1ccccc1)*

Protein sequences, listed by entry. Tags and fused reporters are not part of them. Lines headed by an entry give the natural chain unless they say otherwise; changes in a name come on top.
UniProt Q16222: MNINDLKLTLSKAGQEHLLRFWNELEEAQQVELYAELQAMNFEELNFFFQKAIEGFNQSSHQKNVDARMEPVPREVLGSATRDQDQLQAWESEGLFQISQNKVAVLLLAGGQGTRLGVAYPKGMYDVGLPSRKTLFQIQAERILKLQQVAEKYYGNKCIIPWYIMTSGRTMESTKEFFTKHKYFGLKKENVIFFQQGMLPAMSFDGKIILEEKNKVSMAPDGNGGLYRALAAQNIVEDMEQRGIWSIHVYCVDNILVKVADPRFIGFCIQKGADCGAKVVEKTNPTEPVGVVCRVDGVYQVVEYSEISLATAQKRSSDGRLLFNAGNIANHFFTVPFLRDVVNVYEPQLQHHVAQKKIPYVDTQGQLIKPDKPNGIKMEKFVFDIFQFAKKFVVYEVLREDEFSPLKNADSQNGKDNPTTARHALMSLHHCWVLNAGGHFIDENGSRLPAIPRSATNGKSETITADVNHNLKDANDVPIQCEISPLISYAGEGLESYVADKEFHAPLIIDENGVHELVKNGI
UniProt P62256: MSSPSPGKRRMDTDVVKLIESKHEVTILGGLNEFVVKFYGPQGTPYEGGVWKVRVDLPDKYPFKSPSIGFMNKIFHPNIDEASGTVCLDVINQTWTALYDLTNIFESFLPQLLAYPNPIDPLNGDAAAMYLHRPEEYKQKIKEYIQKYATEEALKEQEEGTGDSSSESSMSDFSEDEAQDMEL
UniProt P68363, whole entry, looked up: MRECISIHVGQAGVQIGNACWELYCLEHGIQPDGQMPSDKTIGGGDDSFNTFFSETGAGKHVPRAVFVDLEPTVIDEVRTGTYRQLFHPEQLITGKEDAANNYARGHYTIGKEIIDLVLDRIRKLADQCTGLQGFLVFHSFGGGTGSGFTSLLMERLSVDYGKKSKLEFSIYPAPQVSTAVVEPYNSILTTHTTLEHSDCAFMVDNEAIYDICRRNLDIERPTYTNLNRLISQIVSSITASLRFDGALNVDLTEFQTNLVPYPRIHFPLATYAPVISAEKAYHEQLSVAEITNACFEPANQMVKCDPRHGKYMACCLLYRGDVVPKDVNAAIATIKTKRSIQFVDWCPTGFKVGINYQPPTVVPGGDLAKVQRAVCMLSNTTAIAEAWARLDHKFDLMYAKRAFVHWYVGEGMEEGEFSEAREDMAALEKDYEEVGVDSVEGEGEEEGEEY
UniProt O14530: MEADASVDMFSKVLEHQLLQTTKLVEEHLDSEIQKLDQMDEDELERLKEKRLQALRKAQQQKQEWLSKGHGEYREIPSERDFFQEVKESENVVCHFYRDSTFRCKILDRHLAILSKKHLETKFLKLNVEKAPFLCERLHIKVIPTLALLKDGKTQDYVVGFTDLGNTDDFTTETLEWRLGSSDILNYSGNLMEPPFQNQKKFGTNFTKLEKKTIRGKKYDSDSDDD
UniProt Q9NPD8: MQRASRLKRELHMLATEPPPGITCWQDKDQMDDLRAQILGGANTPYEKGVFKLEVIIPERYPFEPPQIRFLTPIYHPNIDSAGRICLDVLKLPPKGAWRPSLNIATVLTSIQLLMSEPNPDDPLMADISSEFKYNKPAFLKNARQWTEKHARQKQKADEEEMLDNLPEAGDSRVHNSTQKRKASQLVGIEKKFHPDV
UniProt Q9BSJ2, whole entry, looked up: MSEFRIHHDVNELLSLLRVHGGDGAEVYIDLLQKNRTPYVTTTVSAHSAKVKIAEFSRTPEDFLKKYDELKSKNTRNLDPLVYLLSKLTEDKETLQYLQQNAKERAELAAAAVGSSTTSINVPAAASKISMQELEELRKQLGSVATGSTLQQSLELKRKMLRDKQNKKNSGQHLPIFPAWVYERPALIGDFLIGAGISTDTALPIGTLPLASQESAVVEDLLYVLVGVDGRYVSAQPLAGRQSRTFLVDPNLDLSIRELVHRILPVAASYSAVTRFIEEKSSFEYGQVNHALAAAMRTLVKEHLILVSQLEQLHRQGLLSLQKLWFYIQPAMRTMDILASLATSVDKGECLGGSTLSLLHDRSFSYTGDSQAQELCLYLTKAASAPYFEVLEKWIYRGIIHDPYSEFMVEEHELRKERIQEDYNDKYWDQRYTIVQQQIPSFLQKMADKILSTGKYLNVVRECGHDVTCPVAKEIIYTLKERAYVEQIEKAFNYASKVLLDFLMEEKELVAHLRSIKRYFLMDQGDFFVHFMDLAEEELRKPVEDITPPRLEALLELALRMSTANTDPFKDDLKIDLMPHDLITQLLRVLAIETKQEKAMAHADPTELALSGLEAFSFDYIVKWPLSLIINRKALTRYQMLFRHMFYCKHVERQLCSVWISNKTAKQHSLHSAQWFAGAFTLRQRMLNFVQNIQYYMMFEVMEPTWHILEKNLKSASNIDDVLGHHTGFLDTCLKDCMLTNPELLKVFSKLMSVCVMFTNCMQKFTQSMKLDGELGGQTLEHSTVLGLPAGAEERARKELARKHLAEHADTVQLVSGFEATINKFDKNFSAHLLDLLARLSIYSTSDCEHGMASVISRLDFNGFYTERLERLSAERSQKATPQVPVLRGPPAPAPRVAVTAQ
UniProt Q6IBS0: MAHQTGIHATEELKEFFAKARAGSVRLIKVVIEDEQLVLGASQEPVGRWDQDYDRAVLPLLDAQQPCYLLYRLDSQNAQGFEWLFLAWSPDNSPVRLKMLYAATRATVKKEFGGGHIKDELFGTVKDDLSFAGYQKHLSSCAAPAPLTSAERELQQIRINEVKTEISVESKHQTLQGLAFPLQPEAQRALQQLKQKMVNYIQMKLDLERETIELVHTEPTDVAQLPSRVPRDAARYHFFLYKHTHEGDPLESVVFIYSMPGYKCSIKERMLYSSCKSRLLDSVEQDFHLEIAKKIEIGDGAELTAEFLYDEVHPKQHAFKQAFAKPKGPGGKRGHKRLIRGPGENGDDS
UniProt Q12792, whole entry, looked up: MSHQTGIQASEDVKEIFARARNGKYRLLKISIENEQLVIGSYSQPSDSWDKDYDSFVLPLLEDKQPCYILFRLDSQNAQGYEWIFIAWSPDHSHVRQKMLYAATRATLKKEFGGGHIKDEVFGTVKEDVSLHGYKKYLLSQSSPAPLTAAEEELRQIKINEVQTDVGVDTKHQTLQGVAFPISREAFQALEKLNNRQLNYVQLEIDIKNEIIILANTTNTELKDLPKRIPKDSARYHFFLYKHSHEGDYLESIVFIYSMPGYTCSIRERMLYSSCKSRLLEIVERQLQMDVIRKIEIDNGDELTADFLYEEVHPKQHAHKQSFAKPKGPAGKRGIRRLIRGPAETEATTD
UniProt O95881: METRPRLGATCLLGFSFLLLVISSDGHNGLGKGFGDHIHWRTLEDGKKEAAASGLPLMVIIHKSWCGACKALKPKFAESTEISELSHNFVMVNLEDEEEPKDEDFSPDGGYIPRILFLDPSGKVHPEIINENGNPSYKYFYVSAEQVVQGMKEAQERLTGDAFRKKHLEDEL
UniProt P07437, whole entry, looked up: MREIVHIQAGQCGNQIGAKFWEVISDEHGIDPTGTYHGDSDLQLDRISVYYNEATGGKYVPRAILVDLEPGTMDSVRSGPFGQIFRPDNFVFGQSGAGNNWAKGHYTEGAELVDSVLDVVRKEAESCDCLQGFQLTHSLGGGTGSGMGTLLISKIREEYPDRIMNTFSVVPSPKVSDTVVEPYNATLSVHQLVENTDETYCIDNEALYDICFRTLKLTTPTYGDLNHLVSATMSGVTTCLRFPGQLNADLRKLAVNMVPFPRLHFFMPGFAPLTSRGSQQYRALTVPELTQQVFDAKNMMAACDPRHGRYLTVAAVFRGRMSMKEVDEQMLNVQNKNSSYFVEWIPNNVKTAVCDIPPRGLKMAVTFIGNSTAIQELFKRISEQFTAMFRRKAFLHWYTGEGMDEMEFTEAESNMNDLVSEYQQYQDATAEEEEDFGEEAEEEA
UniProt Q15819: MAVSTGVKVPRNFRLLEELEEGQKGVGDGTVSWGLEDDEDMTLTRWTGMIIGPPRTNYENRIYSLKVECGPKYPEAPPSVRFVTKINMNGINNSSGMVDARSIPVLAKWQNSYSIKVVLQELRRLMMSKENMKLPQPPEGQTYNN
UniProt P51965: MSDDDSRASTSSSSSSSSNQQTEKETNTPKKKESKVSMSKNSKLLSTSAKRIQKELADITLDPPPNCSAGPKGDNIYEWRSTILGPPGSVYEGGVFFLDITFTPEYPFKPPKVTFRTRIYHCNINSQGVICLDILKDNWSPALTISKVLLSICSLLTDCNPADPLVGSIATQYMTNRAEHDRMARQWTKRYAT
UniProt Q05086: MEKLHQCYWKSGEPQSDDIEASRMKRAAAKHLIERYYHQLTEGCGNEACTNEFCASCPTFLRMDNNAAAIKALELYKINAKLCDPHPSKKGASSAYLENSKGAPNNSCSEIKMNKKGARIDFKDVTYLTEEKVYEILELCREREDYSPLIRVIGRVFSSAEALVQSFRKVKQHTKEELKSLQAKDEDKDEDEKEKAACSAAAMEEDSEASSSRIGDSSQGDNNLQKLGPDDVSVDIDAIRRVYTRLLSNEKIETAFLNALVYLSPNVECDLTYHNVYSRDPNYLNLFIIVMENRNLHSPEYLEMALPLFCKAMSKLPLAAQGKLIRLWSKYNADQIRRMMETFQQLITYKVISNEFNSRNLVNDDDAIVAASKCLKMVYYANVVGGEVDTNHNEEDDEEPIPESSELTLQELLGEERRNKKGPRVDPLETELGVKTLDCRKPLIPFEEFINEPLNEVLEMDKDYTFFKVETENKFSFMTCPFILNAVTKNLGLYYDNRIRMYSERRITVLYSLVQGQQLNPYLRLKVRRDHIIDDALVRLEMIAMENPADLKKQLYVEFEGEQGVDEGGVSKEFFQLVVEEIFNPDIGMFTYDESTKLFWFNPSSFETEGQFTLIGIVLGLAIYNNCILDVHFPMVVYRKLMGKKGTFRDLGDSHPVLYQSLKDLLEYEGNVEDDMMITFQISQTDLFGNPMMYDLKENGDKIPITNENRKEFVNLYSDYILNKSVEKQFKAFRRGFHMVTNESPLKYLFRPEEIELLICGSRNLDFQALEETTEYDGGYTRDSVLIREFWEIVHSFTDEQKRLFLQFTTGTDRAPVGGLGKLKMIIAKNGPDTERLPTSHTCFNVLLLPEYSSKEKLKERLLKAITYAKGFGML
UniProt Q9BUF5, whole entry, looked up: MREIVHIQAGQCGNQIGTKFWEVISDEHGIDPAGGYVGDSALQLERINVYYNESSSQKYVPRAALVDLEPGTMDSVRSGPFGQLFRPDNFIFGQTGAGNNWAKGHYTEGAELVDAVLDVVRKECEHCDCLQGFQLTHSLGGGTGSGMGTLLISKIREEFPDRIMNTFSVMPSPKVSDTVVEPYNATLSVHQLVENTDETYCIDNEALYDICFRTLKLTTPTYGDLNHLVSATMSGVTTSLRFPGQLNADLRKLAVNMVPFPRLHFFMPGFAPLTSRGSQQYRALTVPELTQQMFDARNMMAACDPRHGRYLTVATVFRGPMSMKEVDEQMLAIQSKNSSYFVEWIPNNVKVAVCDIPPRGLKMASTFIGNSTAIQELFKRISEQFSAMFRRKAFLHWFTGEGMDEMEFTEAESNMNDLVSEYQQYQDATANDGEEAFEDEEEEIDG
UniProt P30536, whole entry, looked up: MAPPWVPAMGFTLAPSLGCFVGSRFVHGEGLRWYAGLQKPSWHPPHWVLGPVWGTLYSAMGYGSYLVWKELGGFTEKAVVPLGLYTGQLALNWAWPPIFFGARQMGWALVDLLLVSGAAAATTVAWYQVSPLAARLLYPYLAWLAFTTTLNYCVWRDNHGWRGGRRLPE
UniProt P49459, whole entry, looked up: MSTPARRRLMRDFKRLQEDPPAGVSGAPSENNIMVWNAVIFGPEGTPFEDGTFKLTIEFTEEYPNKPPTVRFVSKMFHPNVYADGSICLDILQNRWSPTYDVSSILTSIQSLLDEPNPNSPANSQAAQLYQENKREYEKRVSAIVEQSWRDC

Columns and labels:
Assay in all cases: log2 fold change, soluble protein after heating vs DMSO (PISA); higher = thermal stabilisation; K562 cells, 10 uM, 30 min; active = over 0.2 and 3.5 SD of the protein, either way, in both replicates (recomputed)
[1] = compound: C#Cc1cccc(Nc2ncnc3cc(OCCOC)c(OCCOC)cc23)c1 [erlotinib]
Method in brief: (§1)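 K562 cells at 2×10^6 cells/mL were treated with 10 μM compound for 30 min. Aliquots were heated for 3 min across 48°C-58°C, pooled, and extracted in PBS with 0.5% NP-40 at 4°C; soluble protein was the supernatant after 21,000xg for 90 min. Soluble protein was quantified by TMTpro 16plex LC-MS/MS with channel sums equalised, and reported as log2 fold change in thermal stability against DMSO controls, with values from duplicates.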

[2] = compound: C/C(=N\NC(=O)C1=CC(=CC=C1)S(=O)(=O)N2CCOCC2)/C3=C(C=CC(=C3)Cl)O
Method in brief: as §1

[3] = compound: C1=CC(=C(C=C1Cl)C2=NC3=NC=CN=C3C(=N2)NC4=CC=NC=C4)F
Method in brief: as §1

[4] = compound: C1=CC(=CC=C1C2=NC3=C(N2)C=C(C=C3)C(=O)N)OC4=CC=C(C=C4)Cl
Method in brief: as §1

[5] = compound: C1=CC2=C(C=CC(=C2)/C=C\3/C(=O)NC(=NCC4=CC=CS4)S3)N=C1
Method in brief: as §1

[6] = compound: C1=CC2=NC=CN=C2C=C1/C=C/3\C(=O)NC(=O)S3
Method in brief: as §1

[7] = compound: C1=CC=C(C=C1)C2=NC(=C(N2)C3=CC=NC=C3)C4=CC(=C(C=C4)Cl)O
Method in brief: as §1

[8] = compound: C1=CC=C2C(=C1)C3=NNC4=CC=CC(=C43)C2=O
Method in brief: as §1

[9] = compound: C1CCN(C1)C(=O)NC2=CC=CC(=C2)NC3=NC=C(C(=N3)NCCC4=CN=CN4)Br
Method in brief: as §1

[10] = compound: C1CN(CCC1(CC2=CC=C(C=C2)Cl)N)C3=NC=NC4=C3C=CN4
Method in brief: as §1

[11] = compound: C1COCCN1CCN2C3=CC=CC=C3N=C2NC(=O)C4=CC(=CC=C4)[N+](=O)[O-] [IRAK-1-4 Inhibitor I]
Method in brief: as §1

[12] = compound: C=CC(=O)N1CCC[C@@H](n2nc(-c3ccc(Oc4ccccc4)cc3)c3c(N)ncnc32)C1 [ibrutinib]
Method in brief: as §1

[13] = compound: CC(=O)c1cnc2ccc(-c3cc(Cl)c(O)c(Cl)c3)nc2c1N[C@H]1CC[C@H](CN(C)C)CC1
Method in brief: as §1

[14] = compound: CC(C)(C)Cn1c(N)nc2ccc(-c3[nH]c(C(C)(C)C)nc3-c3ccc(F)cc3)nc21 [ralimetinib]
Method in brief: as §1

[15] = compound: CC(C)(O)CC(=O)NCCn1ccc2ncnc(Nc3ccc(Oc4cccc(C(F)(F)F)c4)c(Cl)c3)c21
Method in brief: as §1

[16] = compound: CC(C)C1=C2N=C(C=C(N2N=C1)NCC3=CC=CC=C3)NCCCCCCN
Method in brief: as §1

[17] = compound: CC(C)C[C@@H](C=O)NC(=O)[C@H](CC(C)C)NC(=O)[C@H](CC(C)C)NC(=O)OCc1ccccc1
Method in brief: as §1

[18] = compound: CC(C)N(C[C@H]1O[C@@H](n2cnc3c(N)ncnc32)[C@H](O)[C@@H]1O)[C@H]1C[C@@H](CCc2nc3cc(C(C)(C)C)ccc3[nH]2)C1 [pinometostat]
Method in brief: as §1

[19] = compound: CC1=C(C(CC(=O)N1)C2=CC=C(C=C2)C(F)(F)F)C(=O)NC3=C(C=C4C(=C3)C=NN4)F
Method in brief: as §1

[20] = compound: CC1=C(C2=C(C=C1)C(=O)C3=CC=CC=C3N2CCCN)C
Method in brief: as §1

Measured: log2 fold change

UAP1 (UniProt Q16222)
inactive: [1] 0.005 | [2] 0.042 | [3] 0.065 | [4] 0.005 | [5] 0.021 | [6] -0.048 | [7] -0.001 | [8] 0.004 | [9] 0.025 | [10] 0.025 | [11] 0.077 | [12] 0.006 | [13] 0.014 | [14] -0.076 | [15] -0.028 | [16] -0.024 | [17] 0.009 | [18] -0.023 | [19] -0.026 | [20] 0.032

UBE2H (UniProt P62256)
inactive: [1] -0.005 | [2] 0.059 | [3] 0.033 | [4] 0 | [5] 0.025 | [6] -0.037 | [7] -0.042 | [8] -0.036 | [9] -0.021 | [10] -0.008 | [11] 0.02 | [12] -0.05 | [13] -0.05 | [14] -0.1 | [15] -0.044 | [16] -0.032 | [17] -0.018 | [18] -0.049 | [19] -0.045 | [20] -0.052

TUBA1B (UniProt P68363)
inactive: [1] 0.027 | [2] -0.007 | [3] 0.034 | [4] 0.01 | [5] 0.014 | [6] 0.01 | [7] 0.016 | [8] -0.016 | [9] 0.02 | [10] 0.08 | [11] 0.027 | [12] -0.001 | [13] 0.002 | [14] -0.016 | [15] -0.095 | [16] 0.012 | [17] -0.037 | [18] -0.043 | [19] -0.001 | [20] 0.001

TXNDC9 (UniProt O14530)
inactive: [1] -0.044 | [2] 0.044 | [3] -0.03 | [4] 0.062 | [5] -0.035 | [6] 0.015 | [7] -0.011 | [8] 0.041 | [9] -0.008 | [10] -0.031 | [11] -0.009 | [12] -0.019 | [13] -0.009 | [14] 0.039 | [15] -0.04 | [16] -0.042 | [17] 0.004 | [18] 0.012 | [19] 0.002 | [20] -0.039

UBE2T (UniProt Q9NPD8)
inactive: [1] 0.023 | [2] 0.091 | [3] -0.022 | [4] 0.041 | [5] 0.002 | [6] 0.02 | [7] -0.005 | [8] -0.034 | [9] 0.005 | [10] 0.001 | [11] -0.036 | [12] -0.025 | [13] 0.03 | [14] 0.021 | [15] -0.094 | [16] -0.068 | [17] 0.045 | [18] -0.008 | [19] -0.032 | [20] 0.07

TUBGCP2 isoform 4 (UniProt Q9BSJ2)
inactive: [1] 0.058 | [2] -0.08 | [3] 0.017 | [4] 0.061 | [5] 0.126 | [6] -0.052 | [7] -0.052 | [8] 0.091 | [9] -0.112 | [10] -0.147 | [11] -0.076 | [12] 0.322 | [13] 0.01 | [14] 0.183 | [15] -0.127 | [16] -0.045 | [17] 0.18 | [18] 0.261 | [19] 0.047 | [20] 0.072

TWF2 (UniProt Q6IBS0)
inactive: [1] 0.045 | [2] 0.059 | [3] 0.066 | [4] 0.013 | [5] -0.008 | [6] 0.028 | [7] 0.001 | [8] 0.02 | [9] 0.031 | [10] -0.035 | [11] 0.012 | [12] -0.029 | [13] -0.003 | [14] -0.015 | [15] -0.042 | [16] 0.019 | [17] -0.011 | [18] 0.019 | [19] -0.093 | [20] 0.002

TWF1 (UniProt Q12792)
inactive: [1] -0.074 | [2] 0.129 | [3] 0.028 | [4] 0.063 | [5] 0.002 | [6] 0.083 | [7] 0.019 | [8] -0.021 | [9] -0.019 | [10] -0.068 | [11] -0.065 | [12] -0.055 | [13] 0.027 | [14] -0.019 | [15] -0.034 | [16] -0.012 | [17] -0.095 | [18] 0.002 | [19] -0.085 | [20] 0.042

TXNDC12 (UniProt O95881)
inactive: [1] -0.055 | [2] 0.006 | [3] 0.011 | [4] -0.028 | [5] 0.044 | [6] 0.009 | [7] 0.005 | [8] -0.012 | [9] 0.016 | [10] -0.042 | [11] -0.01 | [12] -0.018 | [13] -0.001 | [14] 0.027 | [15] 0.011 | [16] 0.026 | [17] -0.017 | [18] -0.011 | [19] 0.007 | [20] 0.02

Quoted at random: two records from the list.
UBE2T (UniProt Q9NPD8)
inactive: [1] 0.023 | [2] 0.091 | [3] -0.022 | [4] 0.041 | [5] 0.002 | [6] 0.02 | [7] -0.005 | [8] -0.034 | [9] 0.005 | [10] 0.001 | [11] -0.036 | [12] -0.025 | [13] 0.03 | [14] 0.021 | [15] -0.094 | [16] -0.068 | [17] 0.045 | [18] -0.008 | [19] -0.032 | [20] 0.07

TUBA1B (UniProt P68363)
inactive: [1] 0.027 | [2] -0.007 | [3] 0.034 | [4] 0.01 | [5] 0.014 | [6] 0.01 | [7] 0.016 | [8] -0.016 | [9] 0.02 | [10] 0.08 | [11] 0.027 | [12] -0.001 | [13] 0.002 | [14] -0.016 | [15] -0.095 | [16] 0.012 | [17] -0.037 | [18] -0.043 | [19] -0.001 | [20] 0.001

Additional entries:

TUBB (UniProt P07437)
inactive: [1] 0.008 | [2] -0.015 | [3] 0.043 | [4] 0.034 | [5] 0.013 | [6] -0.013 | [7] 0.019 | [8] 0.011 | [9] 0.016 | [10] 0.08 | [11] 0.057 | [12] 0.043 | [13] -0.035 | [14] -0.011 | [15] -0.002 | [16] -0.01 | [17] -0.009 | [18] -0.024 | [19] -0.027 | [20] 0.031

UBE2V2 (UniProt Q15819)
inactive: [1] 0.027 | [2] 0.009 | [3] 0.042 | [4] -0.004 | [5] 0.015 | [6] -0.003 | [7] -0.034 | [8] 0.028 | [9] -0.009 | [10] 0.023 | [11] 0.066 | [12] 0.022 | [13] -0.026 | [14] -0.064 | [15] -0.003 | [16] 0.032 | [17] 0.026 | [18] -0.044 | [19] 0.017 | [20] 0.03

UBE2E1 (UniProt P51965)
inactive: [1] -0.044 | [2] 0.1 | [3] 0.192 | [4] -0.043 | [5] -0.035 | [6] 0.048 | [7] 0.029 | [8] 0.04 | [9] -0.088 | [10] -0.081 | [11] 0.019 | [12] 0.005 | [13] -0.047 | [14] 0.14 | [15] -0.118 | [16] -0.176 | [17] -0.242 | [18] -0.024 | [19] -0.124 | [20] 0.175

UBE3A (UniProt Q05086)
inactive: [1] 0.001 | [2] 0.036 | [3] 0.026 | [4] 0.017 | [5] 0.017 | [6] 0.005 | [7] 0.001 | [8] 0.012 | [9] -0.012 | [10] 0.017 | [11] 0.023 | [12] -0.003 | [13] -0.031 | [14] -0.021 | [15] -0.025 | [16] 0 | [17] 0.002 | [18] -0.005 | [19] 0.002 | [20] -0.011

TUBB6 (UniProt Q9BUF5)
inactive: [1] 0.005 | [2] 0.014 | [3] 0.039 | [4] 0.022 | [5] 0 | [6] -0.06 | [7] 0.022 | [8] 0.004 | [9] 0.001 | [10] 0.044 | [11] 0.067 | [12] 0.047 | [13] -0.022 | [14] -0.032 | [15] -0.009 | [16] -0.012 | [17] 0.015 | [18] 0.002 | [19] 0.016 | [20] 0.051

TSPO (UniProt P30536)
inactive: [1] 0.004 | [2] -0.015 | [3] -0.015 | [4] 0.065 | [5] 0.042 | [6] 0.037 | [7] 0.041 | [8] -0.067 | [9] 0.057 | [10] 0.01 | [11] 0.009 | [12] 0.001 | [13] -0.104 | [14] -0.093 | [15] 0.012 | [16] 0.029 | [17] -0.074 | [18] 0.004 | [19] -0.038 | [20] 0.004

UBE2A (UniProt P49459)
inactive: [1] 0.013 | [2] 0.042 | [3] 0.114 | [4] 0.045 | [5] 0.005 | [6] -0.014 | [7] -0.049 | [8] 0.026 | [9] -0.098 | [10] -0.05 | [11] 0.003 | [12] 0.02 | [13] 0.037 | [14] -0.01 | [15] -0.041 | [16] 0.009 | [17] 0.009 | [18] 0.018 | [19] -0.023 | [20] 0.044
